“And” between values parts separate entries of the source, which are not always exact repeats. Equal values may be shown once. Read-outs that look alike come from different tables or passages of the source.
Key:
[1] = Limit of quantitation and estimated limit of detection in corn and soybean matrices
[2] = grapes; for Conc. From curve: final extract; for FOUND (PPM): Set 2, individual samples
[3] = milk, egg, and muscle matrices
[4] = soybean seed, Set 4, individual samples
[5] = set-up: species or system soybean; details: CX samples, internal standard
[6] = Whole Milk (RM Raw Milk), MCX
[7] = set-up: species or system cow and chicken; details: cow kidney (beef), fortified 0.5 mg/kg (10X LOQ)
[8] = Trial 1, Set 2, 4X LOQ samples (fortified 0.200 μg/g)
[9] = Trial 1, Set 2, LOQ samples (fortified about 0.050 μg/g)

Compound | LOQ validated [1] | Conc. From curve [2, 8] | Conc. From curve [2, 9] | FOUND (PPM) ([2]; fortification level 0.050 ppm) | LOQ [3] | FOUND (PPM) ([2]; fortification level 0.20 ppm) | FOUND (PPM) ([4]; fortification level 0.050 ppm) | FOUND (PPM) ([4]; fortification level 20 ppm) | Recoveries: AMPA % Rec ([5]; soybean meal fortified at 0.05 mg/kg (LOQ)) | Recoveries: AMPA % Rec ([5]; soybean meal fortified at 0.5 mg/kg (10X)) | Recoveries % Rec ([6]; fortified 0.05 mg/kg) | Recoveries % Rec ([6]; fortified 0.5 mg/kg) [%] | AMPA % Rec [7]
CC(=O)N(CC(=O)O)CP(=O)(O)O [N-acetylglyphosate, N-Acetyl-N-(phosphonomethyl)glycine] | 0.050 ppm (mg/kg) | 3.19 ng/mL and 3.51 ng/mL and 3.43 ng/mL and 3.45 ng/mL and 3.59 ng/mL | 0.937 ng/mL and 0.989 ng/mL and 0.920 ng/mL and 0.922 ng/mL | 0.050 PPM and 0.046 PPM (2×) and 0.049 PPM and 0.47 PPM | 0.025 mg/kg (ppm) |  |  |  |  |  |  |  | 
CC(=O)NCP(=O)(O)O [N-acetyl AMPA, (Acetamidomethyl)phosphonic acid] |  |  |  | 0.051 PPM and 0.049 PPM and 0.044 PPM and 0.050 PPM and 0.040 PPM | 0.025 mg/kg (ppm) | 0.17 PPM and 0.18 PPM and 0.16 PPM (2×) and 0.15 PPM | 0.051 PPM and 0.049 PPM and 0.048 PPM (2×) and 0.044 PPM | 17 PPM and 24 PPM (2×) and 25 PPM and 21 PPM |  |  |  |  | 
NCP(=O)(O)O [AMPA, aminomethyl phosphonic acid] | 0.050 ppm (mg/kg) | 5.58 ng/mL and 5.94 ng/mL and 5.80 ng/mL and 6.20 ng/mL and 5.62 ng/mL | 1.68 ng/mL and 1.52 ng/mL and 1.60 ng/mL and 1.65 ng/mL and 1.63 ng/mL |  | 0.025 mg/kg (ppm) |  |  |  | 82% and 90% | 73% and 76% | 89% and 84% | 82 | 77% and 71%

Reference: US20080280370A1 (priority 2007, published 2008)
